From patent US9541834B2, “Ionic thermal acid generators for low temperature applications” (Rohm and Haas Electronic Materials LLC, priority 2012, dated 2017)

Assay: Chemical trim overcoat (CTO) trimming of resist pattern, CD shrink
Details: developed in 2.38% TMAH for 12 s; for Final CD: 60 nm CTO film containing the TAG on 45 nm 1:1 line/space resist, baked at 70° C., No CTO 45.7 nm; for ΔCD: CD shrink versus No CTO, CTO film baked at 70° C.

Compound	Final CD	ΔCD	ΔCD (listed as ammonium TAG)
N.O=S(=O)(O)C(F)(F)C(F)(F)C(F)(F)C(F)(F)F [Ammonium PFBuS, Ammonium perfluorobutanesulfonate]	45.8 nm	-0.1 nm	no CD shrink
3-Fluoropyridinium perfluorobutanesulfonate [3-Fluoropyridinium PFBuS]	26.4 nm		
Pyridazinium perfluorobutanesulfonate [Pyridazinium PFBuS]	40.6 nm		
